# These are yes or no findings as the source states them, for the method shown. Binding seen in cells or lysates may run through a third protein. A result given as binding can be weak or reduced; the word gives no strength. Sequences can lack the tags named with a protein.
# Biological target: T1, hexa-HA-tagged Prp4p (S. cerevisiae) (UniProt P20053)
# T1 sequence: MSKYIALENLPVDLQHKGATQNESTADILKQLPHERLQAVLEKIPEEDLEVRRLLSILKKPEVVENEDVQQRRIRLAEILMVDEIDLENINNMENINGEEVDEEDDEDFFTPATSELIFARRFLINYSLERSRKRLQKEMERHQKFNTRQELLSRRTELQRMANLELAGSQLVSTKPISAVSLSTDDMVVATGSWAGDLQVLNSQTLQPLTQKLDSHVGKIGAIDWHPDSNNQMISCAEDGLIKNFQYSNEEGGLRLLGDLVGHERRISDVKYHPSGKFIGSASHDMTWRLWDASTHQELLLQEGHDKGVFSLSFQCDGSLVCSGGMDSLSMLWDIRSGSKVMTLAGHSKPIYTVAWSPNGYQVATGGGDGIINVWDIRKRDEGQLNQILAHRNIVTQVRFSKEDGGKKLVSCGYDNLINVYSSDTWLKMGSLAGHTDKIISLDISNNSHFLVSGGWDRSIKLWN
# Experiment: co-IP; immunopurification of the spliceosome: 1 mg extract of UV-irradiated WT (yBD608) and rrp6-Δ (yBD614) cells with genomically hexa-HA-tagged Prp4p, anti-HA antibody, protein A-agarose, 4°C; western blot
substance,measurement,value
Prp80p (S. cerevisiae),binding,binds

# — publication PMC11115967
